Results from publication PMC7819943, “Rice protein-binding microarrays: a tool to detect cis-acting elements near promoter regions in rice”.
The list shows a part of the results.

Protein sequences, listed by entry. Tags and fused reporters are not part of them.
UniProt Q0JBA9, entry or part of it: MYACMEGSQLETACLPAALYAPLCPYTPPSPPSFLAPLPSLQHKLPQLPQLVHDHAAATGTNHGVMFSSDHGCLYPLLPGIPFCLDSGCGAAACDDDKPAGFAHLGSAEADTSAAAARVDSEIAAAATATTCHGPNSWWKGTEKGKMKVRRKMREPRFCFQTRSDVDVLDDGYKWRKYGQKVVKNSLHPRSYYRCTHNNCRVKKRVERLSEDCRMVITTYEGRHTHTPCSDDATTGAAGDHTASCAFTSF

target: OsWRKY34 (Oryza sativa, UniProt Q0JBA9 1-250); assay: protein-binding microarray (RPBM); PBS, 2% BSA, 51.3 ng/ul salmon testes DNA, 50 uM zinc acetate, 200 nM TF, 25 C, 1 h; high values mean tight binding; conditions: protein: recombinant; tags: N-terminal polyhistidine and DsRed monomer fusion (pET32a); label: CyDye5-dUTP incorporated in the synthesized complementary strand; 3' TTTTT single-stranded linker to array surface; dsDNA, one strand shown
Summary of the method: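 An Axon 4000B scanner gave the binding signal as per-feature fluorescence intensity in arbitrary units. This followed washing of a custom Agilent array that had been incubated for 1 h at 25 °C with 200 nM protein in PBS, 2% BSA, salmon testes DNA and 50 µM zinc acetate. The proteins were transcription factors fused at the N-terminus to polyhistidine and DsRed, expressed in E. coli BL21-CodonPlus and purified on Ni–NTA.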

Sequence	binding signal
AAATTTTTCATCCTATCACATCGAACATTTGAACATCTACCGGAGTCACCTAGTGCAG	11400 fluorescence intensity (a.u.)
AACCCTTCAACGCGAACTGGATAGAGTCGAACACCTTCGTCGGAGTCACCTAGTGCAG	8160 fluorescence intensity (a.u.)
TTTATCTCGTAGTTATTTTGTTATTACACTACGTTTAATACGGAGTCACCTAGTGCAG	8720 fluorescence intensity (a.u.)
TTATTTTTTTCCTTATTTTGTATGGCAATCGTTTTTTCCTCGGAGTCACCTAGTGCAG	9260 fluorescence intensity (a.u.)
GCAGGCTCTGAACTTGGTACGGTTGATGATTATTTTTATTCGGAGTCACCTAGTGCAG	10500 fluorescence intensity (a.u.)
AACAGGCATGGTTTCCTTCGTCGTTTCTACTAGCAGTTGCCGGAGTCACCTAGTGCAG	11900 fluorescence intensity (a.u.)
TGATGCATAGTGGGGAGAAGGGATGTGATGATGATGAACCCGGAGTCACCTAGTGCAG	8420 fluorescence intensity (a.u.)
TTCGTCTCCGATCGATGCCTCGCCTGACTCGCATGAGGGGCGGAGTCACCTAGTGCAG	8320 fluorescence intensity (a.u.)
TGGATTGGCTCGAGAATGTTTTTTATTTCCTTTGACAGGACGGAGTCACCTAGTGCAG	8600 fluorescence intensity (a.u.)
CCCGCCGCCGCCGCCACCACCGCAGCTGCGCCGCTTCAAGCGGAGTCACCTAGTGCAG	9360 fluorescence intensity (a.u.)
ATCCTAAGTTTTCTCCTCGTTAGGGTTGGTTGAGTGAATCCGGAGTCACCTAGTGCAG	8790 fluorescence intensity (a.u.)
CTTGTGACCTACGCCCTCTACGCTCTCATCCCTCTCGCCCCGGAGTCACCTAGTGCAG	9780 fluorescence intensity (a.u.)
GCCGCGCGCCACTTCGCCACCGCGCCGCGCGGCGCTCATCCGGAGTCACCTAGTGCAG	11400 fluorescence intensity (a.u.)
GTTAATTTGAGTGTGCTTGATTTCCTTCGGCCATTGTTCTCGGAGTCACCTAGTGCAG	9060 fluorescence intensity (a.u.)
TGGTTTTCTCTTTTCTAGTGTATAGTTGTATATAAATTAACGGAGTCACCTAGTGCAG	8250 fluorescence intensity (a.u.)
CGGCCGCCGGACCTCCTCTCCCACCTCGCACCGTCGATCTCGGAGTCACCTAGTGCAG	10100 fluorescence intensity (a.u.)
TTGTTGACCGAGCACGGTCCCATACATGTTACATCTCATCCGGAGTCACCTAGTGCAG	10700 fluorescence intensity (a.u.)
GACTACTGAATTTTTCTTGCTCTTTTGTTGTTCTAAAGTCCGGAGTCACCTAGTGCAG	11000 fluorescence intensity (a.u.)
TGCATCTCTGATTTGTAGTGAATGGGTCAAATGCTTTTGACGGAGTCACCTAGTGCAG	8310 fluorescence intensity (a.u.)
GTCGTACTCGCGTCGTTCTCTTCTCCTTCCCTTCCCAGCACGGAGTCACCTAGTGCAG	9630 fluorescence intensity (a.u.)
CATATTGTAGTTCTTCATCCGACTTACTTCGATTCATTGACGGAGTCACCTAGTGCAG	8550 fluorescence intensity (a.u.)

Sequence	binding signal
GCTACTATCCGTTCTATCGTTTAGTTTTTCTTTGAGAACCCGGAGTCACCTAGTGCAG	9860 fluorescence intensity (a.u.)
ATTATATGGTTGTGGGTCCCATTTTAGAGTTGGGAGGGCTCGGAGTCACCTAGTGCAG	8100 fluorescence intensity (a.u.)
GTGATACATGCTGACGTCTTATTTGATATGCCATAAATATCGGAGTCACCTAGTGCAG	11300 fluorescence intensity (a.u.)
CATATGTTTTGTTTTGCTTTGGGGCTTTTAGTAGTAGTTCCGGAGTCACCTAGTGCAG	9460 fluorescence intensity (a.u.)
CTGCTTACAATATTTGACCATTCGTTTTATTTGAAAAATTCGGAGTCACCTAGTGCAG	11000 fluorescence intensity (a.u.)
TTTTGAGGATTTTTTTTTCGAGGTGGTTTTGTTTGCCTCTCGGAGTCACCTAGTGCAG	8700 fluorescence intensity (a.u.)
CTTGCAATCGTCCGGCCTCCATCATCTCTTTATCAATTTGCGGAGTCACCTAGTGCAG	8410 fluorescence intensity (a.u.)
AGTATCTTTGCCATTTGACCTACATTTGACCTATACGTACCGGAGTCACCTAGTGCAG	11000 fluorescence intensity (a.u.)
ACTTATCCCATCAATCACTTCTAATTTAAATTTGTCTCTTCGGAGTCACCTAGTGCAG	11000 fluorescence intensity (a.u.)
GGGAGATGGGGTTCAAAGCGAGGGAGGGTGGTGGCCTCTTCGGAGTCACCTAGTGCAG	10700 fluorescence intensity (a.u.)
TCTCTCTCTCTCTCTCGTCTTCTCCGATCGCGGCGGAATGCGGAGTCACCTAGTGCAG	8400 fluorescence intensity (a.u.)
TCCACTACTCTCTCTCTCCAGATCTCGCCCCACCGCCATGCGGAGTCACCTAGTGCAG	8390 fluorescence intensity (a.u.)
AGCTGAAGCTGTTCCAAACATGCCCCTACTTCTCGTTCTACGGAGTCACCTAGTGCAG	9370 fluorescence intensity (a.u.)
TGCTGGTGGTGTCAATTTCGTCCATTTTGGACCGCTGACGCGGAGTCACCTAGTGCAG	8580 fluorescence intensity (a.u.)
TTCGTCCCATACTGTGCCCTTGCAAATATATGGAGGTTCCCGGAGTCACCTAGTGCAG	10100 fluorescence intensity (a.u.)
TCCTGTTGCTGCTTCTGCCTCTCTCACATCTTCTTTCTTTCGGAGTCACCTAGTGCAG	10900 fluorescence intensity (a.u.)
GAGTTGCGATATTTTAGACCGGGGATGGATGGATGGATGGCGGAGTCACCTAGTGCAG	8190 fluorescence intensity (a.u.)
GGCGGCGGCGGCAGGGGCGGCGGAGGGTTGGCGGCGGCGGCGGAGTCACCTAGTGCAG	11000 fluorescence intensity (a.u.)
ATAATAATTGACTATTCATAGTGCATATTTTCTGACTTTCCGGAGTCACCTAGTGCAG	8480 fluorescence intensity (a.u.)
GGGATGGATGGAGTATGATAGGATATGAAACATTTATACGCGGAGTCACCTAGTGCAG	9000 fluorescence intensity (a.u.)
TCGGGTCCGATCTCTTTATTGCTTTGGTTAGTTTGATTCGCGGAGTCACCTAGTGCAG	9210 fluorescence intensity (a.u.)

Quoted from the listing.
Value of GGGAGATGGGGTTCAAAGCGAGGGAGGGTGGTGGCCTCTTCGGAGTCACCTAGTGCAG under binding signal: 10700 fluorescence intensity (a.u.)
Value of TCCACTACTCTCTCTCTCCAGATCTCGCCCCACCGCCATGCGGAGTCACCTAGTGCAG under binding signal: 8390 fluorescence intensity (a.u.)
Value of TCGGGTCCGATCTCTTTATTGCTTTGGTTAGTTTGATTCGCGGAGTCACCTAGTGCAG under binding signal: 9210 fluorescence intensity (a.u.)
Value of AGTATCTTTGCCATTTGACCTACATTTGACCTATACGTACCGGAGTCACCTAGTGCAG under binding signal: 11000 fluorescence intensity (a.u.)
Value of GGGATGGATGGAGTATGATAGGATATGAAACATTTATACGCGGAGTCACCTAGTGCAG under binding signal: 9000 fluorescence intensity (a.u.)
Value of TCCTGTTGCTGCTTCTGCCTCTCTCACATCTTCTTTCTTTCGGAGTCACCTAGTGCAG under binding signal: 10900 fluorescence intensity (a.u.)

Additional records:

Sequence	binding signal
CAGATTGTTTTCCATGATTCTTAGCCTCTCTGATGTTTGACGGAGTCACCTAGTGCAG	9640 fluorescence intensity (a.u.)
TTGTTGATTTTTCTCTATGCTCTTTTCTCCCGTGAAAAAACGGAGTCACCTAGTGCAG	9340 fluorescence intensity (a.u.)
CGTAGCAGCCCAAACGTGTTCAACCAACGCAGCAAGTTTCCGGAGTCACCTAGTGCAG	8940 fluorescence intensity (a.u.)
GAGAGATGGGGAAAAGGGATGGGTAGATAGATATTAGGTACGGAGTCACCTAGTGCAG	10800 fluorescence intensity (a.u.)
TCCATCTTCCAGGCCTGCCCACTAGACATTTCCCATGGATCGGAGTCACCTAGTGCAG	8590 fluorescence intensity (a.u.)
CATCAGGATCACTTTTTTCCTTCTAAGTTCTACACTCCAACGGAGTCACCTAGTGCAG	8950 fluorescence intensity (a.u.)
GCACGCAAGCACGCCTCTCGTCGCGTTCCGTTTCGTTGCGCGGAGTCACCTAGTGCAG	10500 fluorescence intensity (a.u.)
CCCGTATTTCCTAGGCCGTATACCGTATCCTCCTCGTCACCGGAGTCACCTAGTGCAG	11400 fluorescence intensity (a.u.)
CTGTTTTGCCATTGAAGTCTTATGAATTTTTCTTTTTTTACGGAGTCACCTAGTGCAG	9100 fluorescence intensity (a.u.)
TAAGTTGAGGGATCTCTGGTGAACTTATTCCACCCACTATCGGAGTCACCTAGTGCAG	8240 fluorescence intensity (a.u.)
ATGTCTGCTACTGAACACTGCTCTTCCATTTCTACCATTTCGGAGTCACCTAGTGCAG	9250 fluorescence intensity (a.u.)
TATGAGTTTCCGTGTCCAACTTTAATCGTTCGTCTTATTTCGGAGTCACCTAGTGCAG	8590 fluorescence intensity (a.u.)
CGGAGAGATAGATTGGTTGGTTGCGAGGGCGAGGCGGCGGCGGAGTCACCTAGTGCAG	8230 fluorescence intensity (a.u.)
TTTTTTTCTTGGGCTGGGTCCGCTGGGATTTATGTTTACACGGAGTCACCTAGTGCAG	12700 fluorescence intensity (a.u.)
TGCGTACATATAAGTTTCATATCGGGGTTGTGGAAGTCCACGGAGTCACCTAGTGCAG	9900 fluorescence intensity (a.u.)
AAAATGATCCGGTTTCTCTGCCACAAAGCCTGAGGCCTCGCGGAGTCACCTAGTGCAG	9990 fluorescence intensity (a.u.)
CCCCAACTTATCGTGTGTATTCATTCCTATTTGCAATTCACGGAGTCACCTAGTGCAG	9050 fluorescence intensity (a.u.)
AGCTTCTGTTCTGGAAATTTGCCTTAACCTTGATACTGATCGGAGTCACCTAGTGCAG	8080 fluorescence intensity (a.u.)
CACCTCTGCGCCCCTCGTCGCACCACCACCACCGAGTCATCGGAGTCACCTAGTGCAG	8100 fluorescence intensity (a.u.)
TTCGTGTTGCAGTTTGTCTTGTGATTTTGTTAAACTTAGGCGGAGTCACCTAGTGCAG	8830 fluorescence intensity (a.u.)
TAGACGGATTATGTATTTTTTTTTGTTATTAGACTACGTTCGGAGTCACCTAGTGCAG	8060 fluorescence intensity (a.u.)

Sequence	binding signal
TTTTTTTCTCACGTCTTTCGTTGTCGCGCCATTTATTCCCCGGAGTCACCTAGTGCAG	10200 fluorescence intensity (a.u.)
AGTAGTAGTGGTACAAGTGGTGGTTGTCGTCGTCGTAGTCCGGAGTCACCTAGTGCAG	10100 fluorescence intensity (a.u.)
CGAGGGAGAGGGGAGAGGGGAGTGCGGCGGGTGAGGCGGGCGGAGTCACCTAGTGCAG	9650 fluorescence intensity (a.u.)
CATTCGCCAATTCGTCGCCGCCGCCCAACACGCTACGCCCCGGAGTCACCTAGTGCAG	9240 fluorescence intensity (a.u.)
ATTCGCCAGCCACACCTCTCTCCATCCTCTCGTTCTCTCTCGGAGTCACCTAGTGCAG	12400 fluorescence intensity (a.u.)
CTCTTTCCGACCCCACCTGTCAGTGTAACCCACTCTCACTCGGAGTCACCTAGTGCAG	8490 fluorescence intensity (a.u.)
AAGAATCTGCCGGCAACCTTAACCACCCTCTCCTTCCTTGCGGAGTCACCTAGTGCAG	8220 fluorescence intensity (a.u.)
GGGGACGGGGCGGCCGAAGCGGTTGAAGTGGACGTCGGGGCGGAGTCACCTAGTGCAG	12100 fluorescence intensity (a.u.)
TCGATCGTTGACCACCGACATCAGTAGAATCCGGAGGGCTCGGAGTCACCTAGTGCAG	11900 fluorescence intensity (a.u.)
AGACAAACGGTTAAACATATTTGAAAAGTCAACGGCGTCACGGAGTCACCTAGTGCAG	8880 fluorescence intensity (a.u.)
TGTCGGCGAACTTTCATATGTATATGCATGTCATATATTTCGGAGTCACCTAGTGCAG	9060 fluorescence intensity (a.u.)
TCTTCGATTGGCGTTTTTAATTTGTTGGTGTCAAGTCTTACGGAGTCACCTAGTGCAG	10600 fluorescence intensity (a.u.)
TCAGGTACCTCTTTTGGCAGTCATTTGCATTCCTTCTTGTCGGAGTCACCTAGTGCAG	15700 fluorescence intensity (a.u.)
CCGGGTTCCTGTTTTTTCAACGCATGCACACTTTAATCTACGGAGTCACCTAGTGCAG	9290 fluorescence intensity (a.u.)
CCTGATATCTCCCATCGTTCCCGTCCCGGCGTTGACGGGGCGGAGTCACCTAGTGCAG	8600 fluorescence intensity (a.u.)
AGAGACCTCTATTGCTGTGATATTCTGTCTTCCTGTGATACGGAGTCACCTAGTGCAG	8060 fluorescence intensity (a.u.)
TTTTCCCAATTCAATCCTTGTAGGATGCTCGATTACATCACGGAGTCACCTAGTGCAG	8340 fluorescence intensity (a.u.)
ATAGTACGAATGGTTAGCCCAAAAGTCAGTGTCTTCATTCCGGAGTCACCTAGTGCAG	10300 fluorescence intensity (a.u.)
ATGTGTTAGGGTTTAATCTTTCGGTTTGGATGTTTCTATCCGGAGTCACCTAGTGCAG	8720 fluorescence intensity (a.u.)
CTTCGCTCCACCCGTCAACGTCTGTTTGTTGTATTCCCCTCGGAGTCACCTAGTGCAG	10800 fluorescence intensity (a.u.)
CCTCTCTCGCTCATTTTCGCCGCCGCCACCACCGACGATGCGGAGTCACCTAGTGCAG	13300 fluorescence intensity (a.u.)
